# Experimental data published in publication PMC4165403.
# The chains behind the UniProt entries cited, without tags or fusion partners. Where a name states a change or a piece, a line headed by the entry shows the natural chain unless it says otherwise. A line that says so, or that is headed by a name, gives the form on record, which may keep a tag or linker.
# UniProt P50552: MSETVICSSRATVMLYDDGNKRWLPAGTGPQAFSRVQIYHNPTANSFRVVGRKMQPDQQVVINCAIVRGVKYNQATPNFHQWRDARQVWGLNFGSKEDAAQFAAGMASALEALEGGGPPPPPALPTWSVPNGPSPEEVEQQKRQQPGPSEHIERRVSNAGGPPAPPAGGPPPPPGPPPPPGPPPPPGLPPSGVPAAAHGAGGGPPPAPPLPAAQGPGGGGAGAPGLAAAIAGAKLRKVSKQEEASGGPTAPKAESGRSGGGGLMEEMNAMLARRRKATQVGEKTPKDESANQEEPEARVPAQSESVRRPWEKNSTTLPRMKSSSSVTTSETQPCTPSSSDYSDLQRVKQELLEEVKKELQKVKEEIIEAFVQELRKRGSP
# UniProt Q9UI08: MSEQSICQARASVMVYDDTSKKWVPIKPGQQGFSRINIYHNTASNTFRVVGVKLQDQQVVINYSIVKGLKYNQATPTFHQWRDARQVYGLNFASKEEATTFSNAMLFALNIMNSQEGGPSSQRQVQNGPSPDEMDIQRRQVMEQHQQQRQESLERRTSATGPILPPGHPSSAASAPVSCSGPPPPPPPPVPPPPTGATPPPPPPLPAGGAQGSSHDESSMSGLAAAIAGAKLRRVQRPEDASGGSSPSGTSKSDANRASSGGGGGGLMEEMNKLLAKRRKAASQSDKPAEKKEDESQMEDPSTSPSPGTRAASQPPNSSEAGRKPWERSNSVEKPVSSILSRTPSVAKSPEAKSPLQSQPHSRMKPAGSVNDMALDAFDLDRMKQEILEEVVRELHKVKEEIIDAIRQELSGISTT
# UniProt Q9Y2A7: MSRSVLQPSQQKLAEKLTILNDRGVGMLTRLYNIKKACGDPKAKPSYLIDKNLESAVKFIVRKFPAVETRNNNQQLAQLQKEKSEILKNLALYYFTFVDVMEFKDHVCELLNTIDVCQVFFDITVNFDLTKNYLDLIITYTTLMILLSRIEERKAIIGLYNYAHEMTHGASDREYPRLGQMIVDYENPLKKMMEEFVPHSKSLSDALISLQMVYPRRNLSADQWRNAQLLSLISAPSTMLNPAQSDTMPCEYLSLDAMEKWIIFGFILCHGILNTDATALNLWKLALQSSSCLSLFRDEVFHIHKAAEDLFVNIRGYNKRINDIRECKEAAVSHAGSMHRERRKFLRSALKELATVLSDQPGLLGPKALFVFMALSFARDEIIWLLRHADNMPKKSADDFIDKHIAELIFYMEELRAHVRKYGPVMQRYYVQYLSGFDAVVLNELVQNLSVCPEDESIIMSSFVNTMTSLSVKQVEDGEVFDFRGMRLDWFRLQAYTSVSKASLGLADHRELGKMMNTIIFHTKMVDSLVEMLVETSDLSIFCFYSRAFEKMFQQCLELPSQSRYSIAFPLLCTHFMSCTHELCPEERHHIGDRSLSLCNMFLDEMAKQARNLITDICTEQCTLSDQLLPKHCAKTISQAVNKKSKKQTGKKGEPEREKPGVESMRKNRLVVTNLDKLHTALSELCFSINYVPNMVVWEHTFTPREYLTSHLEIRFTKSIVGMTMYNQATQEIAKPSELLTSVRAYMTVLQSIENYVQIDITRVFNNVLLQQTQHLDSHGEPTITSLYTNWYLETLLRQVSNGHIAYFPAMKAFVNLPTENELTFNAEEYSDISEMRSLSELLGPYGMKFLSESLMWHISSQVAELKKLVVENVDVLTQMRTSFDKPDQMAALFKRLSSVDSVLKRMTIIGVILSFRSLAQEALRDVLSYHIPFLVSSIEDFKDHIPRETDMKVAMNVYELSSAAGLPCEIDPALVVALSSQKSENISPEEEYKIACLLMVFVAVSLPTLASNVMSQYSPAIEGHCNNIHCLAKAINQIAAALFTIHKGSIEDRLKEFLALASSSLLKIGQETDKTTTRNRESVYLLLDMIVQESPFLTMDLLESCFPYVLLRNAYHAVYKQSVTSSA
# UniProt Q92558: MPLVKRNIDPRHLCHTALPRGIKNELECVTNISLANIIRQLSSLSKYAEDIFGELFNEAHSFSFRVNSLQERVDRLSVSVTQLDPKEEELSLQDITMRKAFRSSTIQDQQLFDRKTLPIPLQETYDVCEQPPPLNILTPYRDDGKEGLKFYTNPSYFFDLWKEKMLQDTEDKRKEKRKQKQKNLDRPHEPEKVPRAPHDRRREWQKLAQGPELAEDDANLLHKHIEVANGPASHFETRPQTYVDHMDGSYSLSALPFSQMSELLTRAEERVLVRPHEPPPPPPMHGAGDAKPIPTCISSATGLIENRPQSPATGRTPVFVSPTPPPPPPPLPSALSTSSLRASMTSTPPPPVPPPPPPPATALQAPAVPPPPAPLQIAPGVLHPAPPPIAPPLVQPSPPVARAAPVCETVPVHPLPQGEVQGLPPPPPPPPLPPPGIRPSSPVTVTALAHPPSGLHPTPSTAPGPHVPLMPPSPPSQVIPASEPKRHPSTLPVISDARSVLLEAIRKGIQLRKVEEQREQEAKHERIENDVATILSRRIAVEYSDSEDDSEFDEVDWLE
# human Abi1 (bacterially expressed) (Q8IZP0-5, form named): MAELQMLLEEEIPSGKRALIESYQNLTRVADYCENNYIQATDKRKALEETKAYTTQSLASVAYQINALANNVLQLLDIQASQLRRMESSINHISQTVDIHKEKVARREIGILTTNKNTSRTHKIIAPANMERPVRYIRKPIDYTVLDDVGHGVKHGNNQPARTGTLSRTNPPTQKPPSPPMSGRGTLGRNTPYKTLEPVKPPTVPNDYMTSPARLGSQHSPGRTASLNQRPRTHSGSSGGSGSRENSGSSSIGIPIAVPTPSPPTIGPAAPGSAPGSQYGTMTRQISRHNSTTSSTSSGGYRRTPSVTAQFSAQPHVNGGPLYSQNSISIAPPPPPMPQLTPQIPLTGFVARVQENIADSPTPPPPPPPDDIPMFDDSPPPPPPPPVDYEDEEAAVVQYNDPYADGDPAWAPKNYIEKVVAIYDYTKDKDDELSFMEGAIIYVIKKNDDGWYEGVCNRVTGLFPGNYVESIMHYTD
# UniProt Q9Y6W5: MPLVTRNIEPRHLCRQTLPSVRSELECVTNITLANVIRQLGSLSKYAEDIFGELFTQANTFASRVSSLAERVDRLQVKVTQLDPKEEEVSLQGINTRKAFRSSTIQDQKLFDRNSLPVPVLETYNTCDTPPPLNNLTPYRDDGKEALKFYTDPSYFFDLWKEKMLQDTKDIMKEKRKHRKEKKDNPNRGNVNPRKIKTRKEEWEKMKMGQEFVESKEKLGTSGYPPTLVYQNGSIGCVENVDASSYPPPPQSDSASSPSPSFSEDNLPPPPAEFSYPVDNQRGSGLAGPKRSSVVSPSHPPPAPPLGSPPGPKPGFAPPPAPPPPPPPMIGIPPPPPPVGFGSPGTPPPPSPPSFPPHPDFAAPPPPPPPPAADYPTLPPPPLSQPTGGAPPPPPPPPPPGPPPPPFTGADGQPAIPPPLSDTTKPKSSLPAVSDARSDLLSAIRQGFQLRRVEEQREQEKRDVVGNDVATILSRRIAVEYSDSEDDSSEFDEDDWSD
# UniProt Q9NYB9: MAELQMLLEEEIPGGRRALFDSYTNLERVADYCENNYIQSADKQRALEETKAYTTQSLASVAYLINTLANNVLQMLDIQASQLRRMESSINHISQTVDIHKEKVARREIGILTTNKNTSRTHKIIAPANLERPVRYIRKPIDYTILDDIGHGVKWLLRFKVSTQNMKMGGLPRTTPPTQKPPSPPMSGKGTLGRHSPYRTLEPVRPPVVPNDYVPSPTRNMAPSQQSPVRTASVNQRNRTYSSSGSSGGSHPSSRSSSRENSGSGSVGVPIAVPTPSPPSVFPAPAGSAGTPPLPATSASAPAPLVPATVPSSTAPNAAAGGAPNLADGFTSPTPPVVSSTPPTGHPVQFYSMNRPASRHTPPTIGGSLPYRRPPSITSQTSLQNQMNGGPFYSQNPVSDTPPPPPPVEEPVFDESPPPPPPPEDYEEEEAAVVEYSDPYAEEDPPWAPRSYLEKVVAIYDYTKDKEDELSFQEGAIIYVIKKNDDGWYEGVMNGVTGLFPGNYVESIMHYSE
# Read-outs that look alike come from different tables or passages of the source. Results are given in words; binding and its absence hold for the method and conditions named. For some assays here: Binding can be weak; no strength is given. For some assays here: In cells and extracts the contact can be indirect. For some assays here: Sequences can lack the tags named with a protein.
# T1: GST-EVH1-Ena (Drosophila) (UniProt Q8T4F7)
# T1 sequence: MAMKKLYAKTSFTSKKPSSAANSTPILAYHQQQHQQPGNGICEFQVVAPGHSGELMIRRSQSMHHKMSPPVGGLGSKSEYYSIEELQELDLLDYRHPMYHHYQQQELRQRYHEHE
# Key:
# [1] = target: T1, GST-EVH1-Ena (Drosophila); test: pull-down; Ena EVH1 resin on Drosophila S2 cell extracts, immunoblot for dAbi and WAVE; only the target purified
# [2] = target: GST-tagged EVH1 domain of Mena (human) (UniProt Q8N8S7); test: pull-down; pull-down with bacterially expressed recombinant proteins (Figures 1C-E, S2B); which partner was on the resin is not told; both purified
# [3] = target: T1, GST-EVH1-Ena (Drosophila); test: pull-down; GST-EVH1 Ena resin on lysates of cells expressing wild-type or LPPPP-mutant dAbi, immunoblot; only the target purified
# [4] = target: GST-tagged EVH1 domain of VASP (UniProt P50552); test: pull-down; pull-down with bacterially expressed recombinant proteins (Figures 1C-E, S2B); which partner was on the resin is not told; both purified
# [5] = target: GST-tagged EVH1 domain of Evl (UniProt Q9UI08); test: as above
# [6] = target: GST-tagged EVH1 domain of Mena (human) (UniProt Q8N8S7); test: as above; remark: listed apart in the source
molecule,measurement,setting,value
"dAbi (endogenous, S2 cells) (Drosophila (endogenous in S2))",binding,[1],binds
human Nap1 (bacterially expressed) (from UniProt Q9Y2A7),binding,[2],no binding
human WAVE1 (bacterially expressed) (from UniProt Q92558 1-559),binding,[2],binds
GFP-tagged dAbiΔEna (Drosophila),binding,[3],no binding
human Abi1 (bacterially expressed) (from UniProt Q8IZP0-5 1-476),binding,[4],binds
same,binding,[5],binds
human WAVE2 (bacterially expressed) (from UniProt Q9Y6W5 1-498),binding,[2],binds
human Abi2 (bacterially expressed) (from UniProt Q9NYB9 1-513),binding,[2],binds
GFP-tagged dAbi (Drosophila),binding,[3],binds
"WAVE (endogenous, S2 cells) (Drosophila (endogenous in S2))",binding,[1],binds
"human WAVE3 (bacterially expressed) (protein, UniProt Q9UPY6 1-502) MPLVKRNIEPRHLCRGALPEGITSELECVTNSTLAAIIRQLSSLSKHAEDIFGELFNEANNFYIRANSLQDRIDRLAVKVTQLDSTVEEVSLQDINMKKAFKSSTVQDQQVVSKNSIPNPVADIYNQSDKPPPLNILTPYRDDKKDGLKFYTDPSYFFDLWKEKMLQDTEDKRKEKRRQKEQKRIDGTTREVKKVRKARNRRQEWNMMAYDKELRPDNRLSQSVYHGASSEGSLSPDTRSHASDVTDYSYPATPNHSLHPQPVTPSYAAGDVPPHGPASQAAEHEYRPPSASARHMALNRPQQPPPPPPPQAPEGSQASAPMAPADYGMLPAQIIEYYNPSGPPPPPPPPVIPSAQTAFVSPLQMPMQPPFPASASSTHAAPPHPPSTGLLVTAPPPPGPPPPPPGPPGPGSSLSSSPMHGPPVAEAKRQEPAQPPISDARSDLLAAIRMGIQLKKVQEQREQEAKREPVGNDVATILSRRIAVEYSDSDDDSEFDENDWSD",binding,[6],no binding
